Test results: article doi:10.1101/2021.12.29.474426
These are yes or no findings as the source states them, for the method shown. Binding seen in cells or lysates may run through a third protein. Some binding calls cover weakened binding; strength is not graded here.

Legend:
Assay in all cases: co-IP
[1] = molecular target: HA-tagged EBNA2 α1-helix deletion mutant (Epstein-Barr virus) (UniProt P12978)
[2] = molecular target: HA-tagged EBNA2 H15A mutant (Epstein-Barr virus) (UniProt P12978)
[3] = molecular target: HA-tagged EBNA2 (full-length) (Epstein-Barr virus) (UniProt P12978)

B1: early B cell factor (EBF) 1 (protein, UniProt Q9UH73 1-591)
chain: MFGIQESIQRSGSSMKEEPLGSGMNAVRTWMQGAGVLDANTAAQSGVGLARAHFEKQPPSNLRKSNFFHFVLALYDRQGQPVEIERTAFVGFVEKEKEANSEKTNNGIHYRLQLLYSNGIRTEQDFYVRLIDSMTKQAIVYEGQDKNPEMCRVLLTHEIMCSRCCDKKSCGNRNETPSDPVIIDRFFLKFFLKCNQNCLKNAGNPRDMRRFQVVVSTTVNVDGHVLAVSDNMFVHNNSKHGRRARRLDPSEGTPSYLEHATPCIKAISPSEGWTTGGATVIIIGDNFFDGLQVIFGTMLVWSELITPHAIRVQTPPRHIPGVVEVTLSYKSKQFCKGTPGRFIYTALNEPTIDYGFQRLQKVIPRHPGDPERLPKEVILKRAADLVEALYGMPHNNQEIILKRAADIAEALYSVPRNHNQLPALANTSVHAGMMGVNSFSGQLAVNVSEASQATNQGFTRNSSSVSPHGYVPSTTPQQTNYNSVTTSMNGYGSAAMSNLGGSPTFLNGSAANSPYAIVPSSPTMASSTSLPSNCSSSSGIFSFSPANMVSAVKQKSAFAPVVRPQTSPPPTCTSTNGNSLQAISGMIVPPM
Q: Which results are given for B1?
A: binding [1]: no binding; binding [2]: binds; binding [3]: binds
